The record followed here is PMC10904395, “The Deinococcus protease PprI senses DNA damage by directly interacting with single-stranded DNA”.

A negative result means that nothing was seen under these conditions. At least one verdict rests on a figure or table, not on a statement of the authors. For at least one entry, the source does not settle the construct or the ends of the probe.

In the first data set the target is DG-PprI (IrrE) (Deinococcus geothermalis) (UniProt Q1J1D6). Put plainly: EMSA. The following applies: EMSA: 150 mM NaCl, 20 mM Tris-HCl pH 8.0, 0.1 mg/ml BSA, 0.1 uM FAM-labeled nucleic acid, 0/1/2 uM protein, room temperature 30 min, 10% native PAGE in 1x TB; recombinant protein; residues 1-289; protein details: tag removed; label: 5' FAM; single-stranded DNA. (In EMSA bound probe runs differently from free probe, usually more slowly.)
Take “GTTATCACAGGTTATCAGAGGTATAGAG [28nt ssDNA]”: the binding result was “binds”.
For GTTATCACAGGTATCAGAGTAGAG [24nt ssDNA], the binding result is listed as “binds”.
On the same count and under the same terms, next, “GTTATCACAGGTTATCTAGAGGTAGTAGAG [30nt ssDNA]”: “binds”; GTTATCACAGGTATCAGAGTATAGAG [26nt ssDNA]: “binds”.
Still for that read-out and setting: next, GTTATCACAGGTATCAGTAGAG [22nt ssDNA]: “binds”; “GTTATCACAGGTTATCTAGAGGTAGTAGAGTCAGAGGTAG [40nt ssDNA]”: “binds”.

Still in this data set, the particulars now being: length threshold; EMSA: 150 mM NaCl, 20 mM Tris-HCl pH 8.0, 0.1 mg/ml BSA, 0.1 uM FAM-labeled nucleic acid, 0/1/2 uM protein, room temperature 30 min, 10% native PAGE in 1x TB; recombinant protein; residues 1-289; protein details: tag removed; label: 5' FAM; single-stranded DNA.
GTTATCACAGGTTATCAGAG [20nt ssDNA]: the binding result is on record as “binds”.

The same data set, now with this note: no stable complex below 20 nt; EMSA: 150 mM NaCl, 20 mM Tris-HCl pH 8.0, 0.1 mg/ml BSA, 0.1 uM FAM-labeled nucleic acid, 0/1/2 uM protein, room temperature 30 min, 10% native PAGE in 1x TB; recombinant protein; residues 1-289; protein details: tag removed; label: 5' FAM; single-stranded DNA.
Take GTATCAAGAGTG [12nt ssDNA]: the binding result is “no binding”.
Regarding GTTATCAGAG [10nt ssDNA], the binding result is listed as “no binding”.
With GTTATCACAGTCAGAG [16nt ssDNA], the binding result was “no binding”.
In the case of GTTACAGAG [9nt ssDNA], the binding result was “no binding”.
For GTCAGAG [7nt ssDNA], the binding result was “no binding”.
As for GTTCAGAG [8nt ssDNA], the binding result was “no binding”.
For the sequence GTATCAGAGCAGTG [14nt ssDNA], the binding result is on record as “no binding”.
On to GTTATCACAGGTACAGAG [18nt ssDNA], for which the binding result is “no binding”.
